For 1 molecule, binding results are on record in paper PMC10774353.

No constants are given. Whether binding was seen depends on the method and setting. In cells and extracts the contact can be indirect. A yes stands for co-enrichment or nearness to the bait. Other partners may have been found. Where a sequence is shown, tags or fusion partners need not be part of it.

For assay [1], the target named is T1, FLAG-tagged Rsph16 (mouse) (UniProt Q80Y75).
T1 sequence: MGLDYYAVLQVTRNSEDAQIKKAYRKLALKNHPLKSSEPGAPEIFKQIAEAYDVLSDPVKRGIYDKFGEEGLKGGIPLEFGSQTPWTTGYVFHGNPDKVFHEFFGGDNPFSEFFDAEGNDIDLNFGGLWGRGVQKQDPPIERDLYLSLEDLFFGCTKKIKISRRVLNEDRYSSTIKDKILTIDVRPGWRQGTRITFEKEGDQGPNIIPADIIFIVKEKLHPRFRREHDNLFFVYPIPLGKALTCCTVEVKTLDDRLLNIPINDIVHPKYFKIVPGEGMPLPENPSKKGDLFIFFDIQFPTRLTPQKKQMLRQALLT
In words: affinity purification with mass spectrometry; eight subunits co-expressed in HEK293F; two-step affinity purification by Strep-Tag II-Rsph1 (Strep-Tactin beads, biotin elution) and then Flag-Rsph16 (anti-FLAG beads, 3xFlag peptide elution); 25 mM HEPES pH 7.5, 200 mM KCl, 0.05% NP-40; mass spectrometry of the purified complex.

Assay [2] addresses T2, Strep-Tag II-tagged Rsph1 (mouse) (UniProt Q8VIG3).
T2 sequence: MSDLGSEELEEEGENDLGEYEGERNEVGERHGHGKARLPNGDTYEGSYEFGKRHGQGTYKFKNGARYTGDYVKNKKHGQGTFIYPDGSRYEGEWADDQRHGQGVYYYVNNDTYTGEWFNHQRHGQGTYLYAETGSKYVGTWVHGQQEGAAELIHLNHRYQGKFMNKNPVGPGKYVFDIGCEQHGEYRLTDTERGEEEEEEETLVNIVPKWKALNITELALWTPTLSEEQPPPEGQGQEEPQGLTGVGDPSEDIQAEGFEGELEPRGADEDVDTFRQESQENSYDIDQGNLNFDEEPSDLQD
The description is as above.

B1: Rsph10b (protein, UniProt E9PYQ0 1-876)
chain: MVKEKKKADKKGDKSARSPSSISDNPEASKQDSNASKQEVAPSAVVPVVETPLKQAPKRDSVQMEQSEEETQYEEPILTKLIVESYEGEKVRGLYEGEGFAVFQGGNTYHGMFSEGLMHGQGTYIWADGLKYEGDFVKNIPMNHGVYTWPDGSTYEGEVTNGMRNGFGMFKCGTQPVSYIGHWCHGKRHGKGSIYYNQEGTSWYEGDWVYNIKKGWGIRCYKSGNIYEGQWENNMRHGEGRMRWLTTNEEYTGHWEKGIQNGFGTHTWFLKRIPNSQYPLRNEYIGEFVNGFRHGQGKFYYASGAMYEGEWASNKKQGRGRMTFKNGHVYEGLFSNDHIAQFFETEMDYSQSLDRWSDASQRSRQPRGSSVSAVREPETLRKLDGSESRSVLGTSIELDLTLLLDMYPEESQEEEKKQVEYAVLRNITELRRIYCFYSGLGCDHSLDNTFLMTKLHFWRFLKDCRFHHHNITLADMDRVLSVYNGIPIEEIHSPFRTILLRTFLNYLLQLAYYIHHKEFQNRSPSLFLCFTKLMSENIHPHACQVKGHLFSEQQRTLYSMNYIDKCWEIYTAYCRPNEAPPYELTMKMRYFLWMLKDFRMINKDLTATKFMTVIAEDNPFVYDGTDSNFELELVFLEFFEALLCFSLCCMFDQMTRSYLKVPYDDITTNRYGSTQTILNQSIHRSPSAITSHDSEVHFSSTKSSLDKIGALPDGKIRQSEPKLKKSLSEDKVSKMNFKTQGRGLVFMSPQGEKYEKPKDEQKEKLNIWVNNLYVFFVSVLFSAYKREEMLKEKVKENQLQEAELAQQRQIENEELEARLNILREEEARKQDFELDITVLKEPSEIPASQPLTPSPPKEDLASIQTSKASPGKKKKK
As to B1, the binding entry in assay [1] and in assay [2] was “binds” throughout.
